Values quoted from earlier work, collected in PMC4875962 (Clinical Pharmacokinetics, 2015).

Key:
[1] = tested on: Transporters; conditions: cited from earlier work
[2] = tested on: Metabolic CYP enzymes; conditions: cited from earlier work

SMILES	Transporters inhibited [1]	Metabolic CYP enzymes inhibited [2]
CCCCc1oc2ccccc2c1C(=O)c1cc(I)c(OCCN(CC)CC)c(I)c1 [Amiodarone]	P-gp	Moderate 2C9; weak 2D6, 3A
CC(C)c1c(C(=O)Nc2ccccc2)c(-c2ccccc2)c(-c2ccc(F)cc2)n1CC[C@@H](O)C[C@@H](O)CC(=O)O [Atorvastatin]	–	Weak 3A4
